This is one part of the list. These are further read-outs of the screen, such as a control signal, another cell line or another target. No call is given for them. Compounds called inactive in the main read-out are mostly missing here. Words in brackets tell the shape of the fitted curve; partial curves, single points and poor fits give uncertain potencies.
Assay: Cell signaling CRE-BLA (Fsk stim)
Settings: CHO CRE-bla reporter (cAMP response element driving beta-lactamase), forskolin EC10, beta-lactamase ratio; measured here: 460 nm blue channel
Procedure, shortened: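 CRE-bla CHO reporter cells treated with compound titration plus EC10 NKH 477 (water-soluble forskolin), incubated 3 h at 37 °C; CCF4 loading 2 h at room temperature, 460/530 nm emission ratio read, AC50 values derived for positive or negative modulators.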

Row | SMILES | AC50
1 | CCN(CC)c1ccc(-c2c(C#N)c(N)nc(OC)c2C#N)cc1 | 12.6 µM [rising, partial curve]
2 | FC(F)(F)c1nnc2sc(-c3ccncc3)nn12 | 25.1 µM [rising, single point]
3 | C=C1C(=O)C=C2CN(C(=O)c3ccccc3)[C@@](Cc3ccc(F)cc3)(C(=O)OC)[C@@H]12 | 0.501 µM [falling, full curve, poor fit]
4 | COc1ccc(NC(=O)C2CC(c3cc(OC)c(OC)c(OC)c3)=NO2)cc1OC (configuration not stated) | 25.1 µM [rising, partial curve]
5 | CN1CC=C2C(C#N)=C(N)C(C#N)(C#N)C(c3cccc(Cl)c3Cl)C2C1 (configuration not stated) | 12.6 µM [rising, partial curve]
6 | CCOC(=O)c1csc(NC(=O)c2cc(OC)c(OC)c(OC)c2)n1 | 15.8 µM [rising, partial curve]
7 | O=C(CCn1c(=O)c2ccccc2n(CC(=O)NCCC2=CCCCC2)c1=O)NCc1ccco1 | 25.1 µM [rising, single point]
8 | CCOCCCNC(=O)Cc1ccc(OC)c(OC)c1 | 25.1 µM [rising, single point]
9 | CCOC(=O)c1c(NC(=O)CSc2nnnn2C)sc(C)c1-c1ccc(C)cc1 | 3.98 µM [rising, full curve]
10 | Cc1nnsc1NC(=O)OCC(C)C | 12.6 µM [falling, partial curve]
11 | CCc1ccccc1N1CSC2=C(C#N)C(c3cc(OC)c(OC)cc3OC)CC(=O)N2C1 (configuration not stated) | 10 µM [rising, single point]
12 | N#Cc1cc2c(nc1SCc1cccnc1)CCC2 | 12.6 µM [rising, partial curve]
13 | COc1cccc2oc(-c3ccc(O)cc3)cc(=O)c12 | 10 µM [rising, full curve, poor fit]
14 | Cc1cc(-c2ccccc2)c2nncn2n1 | 0.126 µM [rising, full curve]
15 | CCc1cccc2c(C#N)cn(CCOc3ccccc3OC)c12 | 0.398 µM [falling, single point]
16 | CC(C)(C)c1cc(C(F)(F)F)nc(SCCCNC(=O)c2ccco2)n1 | 10 µM [rising, partial curve]
17 | O=c1c(CCc2ccccc2)nc2cncnc2n1-c1ccccc1 | 12.6 µM [rising, partial curve]
18 | CCCCOc1ccc(S(=O)(=O)n2c(C)nc3ccccc32)cc1 | 0.794 µM [rising, partial curve]
19 | CN(C)c1ncc2nc(-c3cc(F)cc(F)c3)c(=O)n(C)c2n1 | 6.31 µM [rising, partial curve]
20 | Cc1ccc2nc3c(cc(C(=O)NCC4CCCO4)c(=N)n3CCCOC(C)C)c(=O)n2c1 (configuration not stated) | 10 µM [rising, partial curve]
21 | COc1ccc(-n2c(=O)c(CCc3ccccc3)nc3cnc(N4CCN(C)CC4)nc32)cc1 | 12.6 µM [rising, partial curve]
22 | O=C1CC(c2ccc(F)cc2)Sc2ccccc2N1 (configuration not stated) | 12.6 µM [falling, single point]
23 | CN(C)CCCN1c2ccc3ccccc3c2Sc2cccc(Cl)c21 | 5.01 µM [rising, single point]

Row | SMILES | AC50
24 | COc1ccc(S(=O)(=O)C(C#N)c2nc3ccccc3nc2N2CCCC(C)C2)cc1 (configuration not stated) | 12.6 µM [rising, partial curve]
25 | COc1cccc(-n2c(SC3CCOC3=O)nc3ccccc3c2=O)c1 (configuration not stated) | 6.31 µM [rising, partial curve]
26 | CCCCC(=O)N1CC2(C)CN(C(=O)CCCC)CC(C)(C1)C2=O | 0.316 µM [falling, partial curve]
27 | COc1ccc(-c2nc(C#N)c(N3CCCCCC3)o2)cc1OC | 1.58 µM [rising, full curve]
28 | COc1cccc(Cn2c(=O)c(-c3ccccc3)nc3cnc(N4CCN(C)CC4)nc32)c1 | 2.51 µM [rising, full curve]
29 | CCOc1ccc(C(=O)Nc2cc(C)c3c(=O)oc4ccccc4c3n2)cc1 | 10 µM [rising, partial curve]
30 | N#C/C(=C\Nc1ccc2c(c1)OCCO2)c1nc2ccccc2[nH]1 | 25.1 µM [falling, single point]
31 | CN(C(=O)CSc1nc(-c2ccc(F)cc2)cs1)C1CCS(=O)(=O)C1 (configuration not stated) | 12.6 µM [falling, single point]
32 | O=C(Cn1cnc2c(cnn2-c2ccccc2)c1=O)NCc1ccccc1 | 20 µM [falling, single point]
33 | COc1ccc(-n2nnnc2-c2cccc(OC)c2)cc1 | 15.8 µM [rising, single point]
34 | CCOC(=O)CSc1nnc(CNC(=O)c2cccs2)n1-c1ccccc1 | 25.1 µM [rising, single point]
35 | O=c1cnc2cnc(Oc3cccc(Cl)c3)nc2n1C1CC1 | 15.8 µM [rising, single point]
36 | O=C(Nc1ccc2nc(-c3cccs3)[nH]c2c1)c1ccco1 | 5.01 µM [rising, partial curve]
37 | CCNc1ncc2nc(-c3cn(C)c4ccccc34)c(=O)n(C[C@H]3CCCO3)c2n1 | 15.8 µM [rising, partial curve]
38 | Cn1c(=O)cc(OCCCC(=O)Nc2ccc3c(c2)OCCO3)c2ccccc21 | 12.6 µM [rising, partial curve]
39 | N=C1C(c2nc3ccccc3c(=O)[nH]2)=C(O)CN1CCc1ccccc1 | 3.98 µM [rising, partial curve]
40 | CCc1ccccc1N1CCN(S(=O)(=O)c2ccc(F)c(C)c2)CC1 | 0.00398 µM [falling, full curve, poor fit]
41 | CCS(=O)(=O)c1ccc(O)c(NC(=O)c2cc(OC)c(OC)c(OC)c2)c1 | 10 µM [rising, partial curve]
42 | COC(=O)c1c(NC(=O)Cc2cccs2)sc2c1CCCC2 | 12.6 µM [rising, partial curve]
43 | COc1cccc(-n2ccnc2SCC(=O)Nc2cc(OC)ccc2OC)c1 | 10 µM [rising, partial curve]
44 | CCCc1cc(=O)[nH]c(SCC(=O)Nc2cc3c(cc2C(C)=O)OCO3)n1 | 15.8 µM [rising, partial curve]
45 | COc1cccc(-n2nnc3c(=O)n(CC(=O)OCc4ccccc4)cnc32)c1 | 5.01 µM [falling, single point]
46 | N#Cc1ccccc1-c1ccc2ncnc(N3CCNCC3)c2c1 | 12.6 µM [rising, partial curve]

Structures above that contain an NH in an aromatic ring, in the order listed:
Row | SMILES | AC50
30 | N#C/C(=C\Nc1ccc2c(c1)OCCO2)c1nc2ccccc2[nH]1 | 25.1 µM [falling, single point]
36 | O=C(Nc1ccc2nc(-c3cccs3)[nH]c2c1)c1ccco1 | 5.01 µM [rising, partial curve]
39 | N=C1C(c2nc3ccccc3c(=O)[nH]2)=C(O)CN1CCc1ccccc1 | 3.98 µM [rising, partial curve]
44 | CCCc1cc(=O)[nH]c(SCC(=O)Nc2cc3c(cc2C(C)=O)OCO3)n1 | 15.8 µM [rising, partial curve]

(continued)

Row | SMILES | AC50
47 | CCn1c(COc2ccccc2C)nnc1SCC(=O)CC(=O)Nc1ccccc1 | 25.1 µM [falling, single point]
48 | Cc1ccnc(NS(=O)(=O)c2ccc(NC(=O)C3CCCNC3=O)cc2)n1 (configuration not stated) | 10 µM [rising, partial curve]
49 | c1cncc(-c2nnc3n2N=C(c2cccs2)CS3)c1 | 12.6 µM [rising, single point]
50 | O=c1c2ccccc2cnn1-c1nc2ccccc2s1 | 0.00316 µM [falling, full curve, poor fit]
51 | O=C1OC2(c3cc(Br)c(O)c(Br)c3Oc3c2cc(Br)c(O)c3Br)c2c(Cl)c(Cl)c(Cl)c(Cl)c21 | 31.6 µM [falling, single point]
52 | CCn1c(/C(C#N)=C(\O)CCc2ccccc2)nc2ccccc21 | 12.6 µM [falling, single point]
53 | CCOC(=O)c1[nH]c(COC(=O)CCCOc2ccccc2)c(C(=O)OCC)c1C | 10 µM [rising, partial curve]
54 | Cc1csc(NC(=O)c2ccc(C)c(S(=O)(=O)N3CCCCC3)c2)n1 | 7.94 µM [rising, partial curve, poor fit]
55 | NC(=O)c1c(NC(=O)C2CCCO2)sc2c1CCC2 (configuration not stated) | 12.6 µM [rising, single point]
56 | CCOc1ccccc1NC(=O)CCSc1nc2n[nH]c(C)c2c(=N)n1-c1ccccc1Cl | 1.26 µM [rising, full curve]
57 | Cn1c(=O)c2c(nc(OCc3cccnc3)n2Cc2c(F)cccc2Cl)n(C)c1=O | 1.58 µM [rising, full curve]
58 | CCCCOc1ccc(C(=O)Oc2ccc(C)nc2)cc1 | 0.0251 µM [falling, full curve, poor fit]
59 | N#Cc1nc(Cc2ccccc2)oc1N1CCC(C(N)=O)CC1 | 2 µM [falling, full curve, poor fit]
60 | O=C(CCS(=O)(=O)c1ccc(Br)cc1)N1CCN(c2ccccc2)CC1 | 0.398 µM [falling, full curve]
61 | CN(CC(=O)Nc1ccc(F)c(F)c1F)c1cnccn1 | 0.00398 µM [falling, full curve, poor fit]
62 | O=C(c1cc2nc3c(c(C(F)(F)F)n2n1)CCc1ccccc1-3)N1CCN2CCCC2C1 (configuration not stated) | 12.6 µM [rising, partial curve, poor fit]
63 | CC(C)C(=O)Nc1c(C(=O)c2ccc(F)cc2)oc2ccccc12 | 10 µM [rising, partial curve]
64 | COc1ccc(OC)c(NC(=O)CCN2CCN(c3ccccc3F)CC2)c1 | 0.00316 µM [falling, full curve, poor fit]
65 | COc1cc2cc(CN(Cc3nnnn3C3CCCC3)C3CCCC3)c(=O)[nH]c2cc1OC | 25.1 µM [rising, single point]
66 | CCOC(=O)c1c(N)c(C#N)cn1-c1ccccc1 | 10 µM [rising, partial curve]
67 | COc1ccc(C)cc1NC(=O)CNC(=O)Cn1ccc2ccccc2c1=O | 0.2 µM [falling, partial curve]
